Test results as given in paper PMC6333852.
Results are given in words; binding and its absence hold for the method and conditions named. Binding seen in cells or lysates may run through a third protein. Some entries that bind do so weakly or less than the wild type.

Key:
[1] = biological target: epidermal growth factor receptor (EGFR) (human (endogenous in hBMECs)) (UniProt P00533); assay: co-IP; anti-EGFR antibody immunoprecipitation from lysates of serum-starved hBMECs, uninfected or infected (E. coli PCN033, RS218 or S. suis SC19, MOI 10, over time), with or without Cytochalasin D pretreatment; western blotting
[2] = biological target: α-actinin-4 (ACTN4) (human (endogenous in hBMECs)) (UniProt O43707); assay: co-IP; anti-ACTN4 antibody immunoprecipitation from lysates of hBMECs, uninfected or infected (PCN033, RS218 or SC19), with or without AG1478 pretreatment; western blotting

Row | Substance | binding [1] | binding [2]
1 | α-actinin-4 (ACTN4) (from UniProt O43707 1-911) | binds | 
2 | epidermal growth factor receptor (EGFR) (from UniProt P00533 25-1210) |  | binds
